Experimental data: PubChem BioAssay AID1487 (National Center for Advancing Translational Sciences (NCATS), 2009)
Among all 200,000 compounds or so, about 25 (0.01%) were called active. Inconclusive means that the source gave no clear call. Such entries were picked first, then a sample of the others. Calls come from the whole dose curve; as a rule, active = well fitted inhibition curve with a large enough effect in the signal ratio, with a control signal flat (not every such curve was filed as active); inconclusive = small, poorly fitted or top-dose-only effect, or effect the other way, or a change in a side signal; inactive = flat fitted curve, though single readings scatter; the % refers to the signal ratio. A potency beside an inconclusive call is a rough fit, not a confirmed value.

Assay: qHTS Assay for Modulators of Lamin A Splicing
Details: HeLa LMNA splicing GFP/RFP minigene ratio, 48 h; ratio change, negative = inhibition: at 46.1 µM (top of the series) unless noted
In short: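 Read-out is the ratio of GFP to DsRed2 object intensity, acquired by 488 nm laser-scanning cytometry on HeLa lamin A-EGFP minigene reporter cells. Compound incubation 48 hrs at 37 °C in Opti-MEM with 2% FBS; DMSO 0.5% final.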
% is set by controls: 0 for no effect and ±100 for the full control effect; potency is the fitted concentration of half-maximal effect.

| SMILES | ratio change, negative = inhibition | Potency |
| --- | --- | --- |
| O=C(NNc1nc(Nc2ccccc2)nc(N2CCOCC2)n1)Nc1ccc(Cl)cc1 | inconclusive: 204% [at 46 µM] | – |
| COc1ccc(-n2c(=O)c(CCc3ccccc3)nc3cnc(N4CCN(C)CC4)nc32)cc1 | inactive: 2.88% | – |
| O=C(NCc1ccc(F)cc1Cl)C1CCN(S(=O)(=O)N2CCC3(CC2)OCCO3)CC1 | inactive: 8.26% | – |
| CC(C)(C)OC(=O)N1CCC(c2c(C(=O)NCCc3ccccc3)cnn2-c2ccc(F)cc2F)CC1 | inconclusive: -18% [at 46 µM] | – |
| O=S(=O)(Nc1ccccc1O)c1ccc(-c2ccccc2)cc1 | inconclusive: -39.1% [at 46 µM] | – |
| COc1ccc(CC(=O)NCc2nnc(SCC(=O)Nc3ccccc3)n2C)cc1 | inconclusive: 23.3% [at 46 µM] | – |
| O=c1c2cn[nH]c2nc(SCc2c(F)cccc2F)n1-c1ccc(Cl)cc1 | inconclusive: -12.8% [at 46 µM] | – |
| CCOc1ccc(OCCOCCN2CCOCC2)cc1 | inactive: 4.23% | – |
| O=C(Nc1nc2ccc(SC(F)F)cc2s1)c1ccc(NS(=O)(=O)c2ccc(F)c(F)c2)cc1 | – | inconclusive: 35.5 µM [cytotoxic, single point] |
| CCOC(=O)c1sc(N)c(C#N)c1CSc1nc2ccc(C)cc2[nH]1 | inconclusive: 2.81% | – |
| CN1C(=O)/C(=C/c2ccc3c(c2)OCO3)N=C1c1ccccc1 | inconclusive: 4.16% | – |
| Cc1cccc(S(=O)(=O)c2c(N)n(Cc3ccco3)c3nc4ccccc4nc23)c1 | inconclusive: 31.5% | – |
| COc1cc(C(=O)Nc2c(C)cc(C)cc2C)c(Br)c(OC)c1OC | inconclusive: -33.3% [at 46 µM] | – |
| CC(C)C(c1nnnn1C1CCCC1)N1CCCc2ccccc21 (stereo unspecified) | inconclusive: -10.2% | – |
| CN(C(=O)CSc1nc(-c2ccc(F)cc2)cs1)C1CCS(=O)(=O)C1 (stereo unspecified) | inconclusive: -27.2% | – |
| CCOC(=O)C(NC(C)=O)C(=O)Nc1ccc(C(C)(C)C)cc1 (stereo unspecified) | inconclusive: -8.43% [at 9.22 µM] | – |
| Cc1ccccc1/C=N\NC(=O)c1csnn1 | inactive: -4.47% | – |
| Cc1cccc(NC(c2ccccc2F)c2ccc3ccc(C)nc3c2O)n1 (stereo unspecified) | – | inconclusive: 20 µM [inhibitor, single point] |
| COc1ccc(C(=O)NCC(c2ccc(N(C)C)cc2)N2CCc3ccccc32)cc1OC (stereo unspecified) | inconclusive: -36.4% [at 46 µM] | – |
| CCc1cccc(C)c1NC(=O)Cn1nc(C)c2nn(-c3ccc(Cl)cc3)c(C)c2c1=O | inconclusive: -12.5% [at 46 µM] | – |
| COCCNc1nc(NCc2cccc(Cl)c2)c2cnn(C)c2n1 | inactive: -3.71% [at 46 µM] | – |

| SMILES | ratio change, negative = inhibition | Potency |
| --- | --- | --- |
| O=c1nc2c(O)cccn2c2c1c(=O)[nH]c1ccccc12 | inconclusive: -17.5% | – |
| COc1cccc(-n2c(SC3CCOC3=O)nc3ccccc3c2=O)c1 (stereo unspecified) | inactive: -12% | – |
| N#C/C(=C\Nc1ccc2c(c1)OCCO2)c1nc2ccccc2[nH]1 | inactive: -7.6% | – |
| O=C(Cc1csc2nc(-c3ccc(F)cc3)cn12)NCc1ccccc1 | inconclusive: -3.57% [at 46 µM] | – |
| COc1ccc(/C=C/C(=O)Nc2nc(-c3cccs3)ns2)cc1OC | inconclusive: -36.7% [at 46 µM] | – |
| CC(C)CN(CC(C)C)c1ccc(/C=N/n2cnnc2)cc1[N+](=O)[O-] | inactive: 8.24% [at 46 µM] | – |
| CC(=O)c1cccc(NC(=O)CSc2nc3ccccc3nc2Cc2ccc(F)cc2)c1 | inconclusive: 3.07% [at 46 µM] | – |
| CCS(=O)(=O)N1CCC(C(=O)N2CCN(Cc3ccccc3)CC2)CC1 | inconclusive: -4.37% [at 46 µM] | – |
| CCOc1ccc(CNC(=O)c2ccc3c(c2)nc2n3CCOC2)cc1OC | inactive: 1.8% [at 46 µM] | – |
| O=C(O)CCCN1C(=O)C2C3CCC(O3)C2C1=O (stereo unspecified) | inconclusive: -6.57% | – |
| CCN(c1cccc(C)c1)S(=O)(=O)c1cccc(C(=O)O)c1 | inconclusive: 16.3% | – |
| CCOC(=O)C1=NN(N=O)C2(CC(=O)N(c3cc(C)cc(C)c3)C2=O)C1 (stereo unspecified) | inactive: -10.6% | – |
| CCc1nn2cc(-c3ccccc3)nc2s1 | inactive: 15.7% | – |
| CC(C)(C)c1ccc(C(=O)NCC(c2ccc(Cl)cc2)N2CCOCC2)cc1 (stereo unspecified) | inconclusive: -4.06% [at 46 µM] | – |
| Cc1ccc2c(CC(=O)NNC(=O)c3ccccc3)coc2c1 | inconclusive: 13.8% | – |
| COc1ccc(C)cc1NC(=O)Nc1cccc(OCc2cc(=O)n3ccc(C)cc3n2)c1 | inconclusive: 9.16% [at 46 µM] | – |
| CC(NC(=O)COC(=O)Cc1ccsc1)C1CC2CCC1C2 (stereo unspecified) | inactive: 7.15% | – |
| CCCCC1=CC2=C(c3ccco3)C(=O)C(C)(OC(=O)c3ccc(OC)cc3)C(=O)C2=CN1Cc1ccco1 (stereo unspecified) | inactive: -0.828% [at 9.22 µM] | – |
| CC(C)Cc1cc(CN2CCCC(CO)(Cc3cccc(Cl)c3)C2)[nH]n1 (stereo unspecified) | inconclusive: -11% [at 46 µM] | – |
| COc1ccc(N2CCN(S(=O)(=O)c3ccc(-c4ccno4)cc3OC)CC2)cc1 | inconclusive: 3.27% [at 46 µM] | – |
| COc1ccc(CNc2cc(-c3ccccc3Cl)ncn2)c(OC)c1 | inconclusive: -14.8% | – |

| SMILES | ratio change, negative = inhibition | Potency |
| --- | --- | --- |
| CC(=O)Nc1ccc(S(=O)(=O)N[C@H](C(=O)O)C(C)C)cc1 | inactive: 6.28% | – |
| CC(NC(=O)/C=C/c1ccccc1)c1ccccc1 (stereo unspecified) | inconclusive: 6.74% [at 46 µM] | – |
| C/C(CC(=O)Nc1ccccn1)=N\NC(=O)c1ccccc1 | inactive: -12.4% | – |
| COc1ccc(-n2c(-c3ccccc3)nnc2-c2ccc(Cl)cc2)cc1 | inconclusive: 12.5% | – |
| CCN(CC)CCCN1C(=O)C(=O)/C(=C(/O)c2ccc3c(c2)OCCO3)C1c1ccco1 (stereo unspecified) | inactive: 10.6% | – |
| O=C(CCSCCC(=O)NCC1CCCO1)NCC1CCCO1 (stereo unspecified) | inactive: 1.29% | – |
| Cc1cc(Cl)c(S(=O)(=O)NC2CCCC2)cc1OCC(=O)NC1CCCCC1 | – | inconclusive: 4.47 µM [fluorescent, full curve, poor fit] |
| N#Cc1nc(-c2ccc(COc3ccccc3)o2)oc1N1CCN(c2ccccc2)CC1 | inactive: 18.5% [at 46 µM] | – |
| CCNc1nc(OC)nc(N2CCC(Cc3ccccc3)CC2)n1 | – | inconclusive: 35.5 µM [fluorescent, single point] |
| O=C1CCSC2(C(=O)N(Cc3ccc(F)cc3)c3ccccc32)N1c1ccc(Cl)cc1 (stereo unspecified) | inactive: 40.5% [at 46 µM] | – |
| Cc1ccc(S(=O)(=O)CC(CN2CCOCC2)N2CCOCC2)cc1 (stereo unspecified) | inconclusive: 12.9% [at 46 µM] | – |
| CCOC(=O)c1csc(NC(=O)c2cc(OC)c(OC)c(OC)c2)n1 | inconclusive: -19.1% | – |
| CC(=O)C1=C(c2ccccc2)NC(=S)NC1c1cc(Cl)c(OC(C)C)c(Cl)c1 (stereo unspecified) | inconclusive: -14.4% | – |
| CCOCCCNC(=O)C(c1ccccc1)N1Cc2ccccc2C1=O (stereo unspecified) | inactive: -25.4% [at 46 µM] | – |
| Cc1ccc(NC(=O)c2ccc(CN3CC(=O)N4CCCCC4C3=O)cc2)c(C)c1 (stereo unspecified) | inconclusive: 0.117% [at 46 µM] | – |
| COc1cccc(Cc2nc3ccccc3nc2SCC(=O)N2CCCc3ccccc32)c1 | inactive: -2.58% [at 46 µM] | – |
| COc1ccc(-c2nnc(SCC(=O)NC(C)c3ccccc3)o2)cc1OC (stereo unspecified) | inconclusive: 8.38% | – |
| S=C(NCc1ccccc1)N1CCN(c2cccc(Cl)c2)CC1 | – | inconclusive: 35.5 µM [falling, single point] |
| COc1ccc(N(Cc2ccccc2)C(=O)CSc2nnc(Cn3nnc4ccccc43)o2)cc1 | – | inconclusive: 35.5 µM [falling, single point] |
| CC(=O)CCc1ccc(OC(=O)c2cccnc2)cc1 | inactive: -1.57% | – |
| CCN(CC)c1ccc(-c2c(C#N)c(N)nc(OC)c2C#N)cc1 | inconclusive: 3.32% | – |

| SMILES | ratio change, negative = inhibition | Potency |
| --- | --- | --- |
| C=CCNC(=S)NC(=O)c1oc2ccccc2c1C | inconclusive: 10.1% [at 46 µM] | – |
| COc1ccc(-c2cnc(C)o2)cc1S(=O)(=O)Nc1ccc(OC(F)(F)F)cc1 | inconclusive: -23.3% [at 46 µM] | – |
| O=S(=O)(/C=C/c1ccccc1)N1CCN(Cc2ccc3c(c2)OCO3)CC1 | – | inconclusive: 17.8 µM [inhibitor, single point] |
| O=c1c(N2CCc3ccccc3C2)csc2ccc(Cl)cc12 | inactive: -25.1% [at 46 µM] | – |
| CC(C)c1cnc2c(c1SCC(=O)N1CCCCC1)c(=O)n(C)c(=O)n2C | inactive: 0.412% [at 46 µM] | – |
| CCOC(=O)c1ccc(NC(=O)c2ccccc2[N+](=O)[O-])cc1 | inconclusive: 13% | – |
| CC(=O)Nc1ccc(SCC(=O)c2cc(C)n(Cc3cccs3)c2C)cc1 | – | inconclusive: 7.94 µM [fluorescent, partial curve] |
| Cc1cccc(N2C(=O)C3CC3C2=O)c1 (stereo unspecified) | inconclusive: 52% [at 9.22 µM] | – |
| COc1ccccc1OCCCC(=O)Nc1ccc([N+](=O)[O-])cc1Br | inconclusive: -26.9% [at 46 µM] | – |
| O=C(NCCc1ccccc1)c1ccc(CS(=O)(=O)Cc2ccccc2Cl)o1 | inconclusive: -22.6% [at 46 µM] | – |
| COC(=O)Cn1ncc(N2C3CC(CC(C)(C)C3)C2C)c(Cl)c1=O (stereo unspecified) | inconclusive: 11.2% | – |
| c1ccc(-c2cnc(CSc3ncnc4sccc34)o2)cc1 | inconclusive: -44.9% | – |
| CCOC(=O)N1C/C(=C\c2ccccc2)C(=O)/C(=C/c2ccccc2)C1 | inconclusive: -41.2% [at 46 µM] | – |
| CC(C)c1ccc(NC(=O)C[n+]2ccn(C3=C([O-])c4ccccc4C3=O)c2)cc1 | inconclusive: -9.1% [at 46 µM] | – |
| CCOCCn1c(CN(Cc2ccccc2)Cc2ccccc2)nc2c1c(=O)n(C)c(=O)n2C | inconclusive: 15.5% | – |
| OCc1cc(C(O)CNCCCCCCOCCCCc2ccccc2)ccc1O (stereo unspecified) | inconclusive: 1.25% | – |
| CCc1nc(SCC(=O)N2CCC(Cc3ccccc3)CC2)c2c(=O)n(C)c(=O)n(C)c2n1 | inactive: -12.9% | – |
| COc1ccc2oc(=O)c(-c3cn4c(n3)sc3cc(OC)ccc34)cc2c1 | inconclusive: 12% [at 46 µM] | – |

Structures above with a nitro group on carbon:

| SMILES | ratio change, negative = inhibition | Potency |
| --- | --- | --- |
| CC(C)CN(CC(C)C)c1ccc(/C=N/n2cnnc2)cc1[N+](=O)[O-] | inactive: 8.24% [at 46 µM] | – |
| CCOC(=O)c1ccc(NC(=O)c2ccccc2[N+](=O)[O-])cc1 | inconclusive: 13% | – |
| COc1ccccc1OCCCC(=O)Nc1ccc([N+](=O)[O-])cc1Br | inconclusive: -26.9% [at 46 µM] | – |
